Source: PMC4006750, “GOLPH3 Is Essential for Contractile Ring Formation and Rab11 Localization to the Cleavage Site during Cytokinesis in Drosophila melanogaster” (PLoS Genetics, 2014)
Like-named read-outs stand apart in the source and are kept apart here. These are yes or no findings as the source states them, for the method shown. In cells and extracts the contact can be indirect. Some entries that bind do so weakly or less than the wild type. For some assays here: Where a sequence is shown, tags or fusion partners need not be part of it. Values belong to the molecule of their own block, whether it stands above or below them.

Chains of the proteins cited; added tags and fusions are not shown. Lines headed by an entry give the natural chain unless they say otherwise; changes in a name come on top. A line that says so, or that is headed by a name, gives the form on record, which may keep a tag or linker.
UniProt P29742: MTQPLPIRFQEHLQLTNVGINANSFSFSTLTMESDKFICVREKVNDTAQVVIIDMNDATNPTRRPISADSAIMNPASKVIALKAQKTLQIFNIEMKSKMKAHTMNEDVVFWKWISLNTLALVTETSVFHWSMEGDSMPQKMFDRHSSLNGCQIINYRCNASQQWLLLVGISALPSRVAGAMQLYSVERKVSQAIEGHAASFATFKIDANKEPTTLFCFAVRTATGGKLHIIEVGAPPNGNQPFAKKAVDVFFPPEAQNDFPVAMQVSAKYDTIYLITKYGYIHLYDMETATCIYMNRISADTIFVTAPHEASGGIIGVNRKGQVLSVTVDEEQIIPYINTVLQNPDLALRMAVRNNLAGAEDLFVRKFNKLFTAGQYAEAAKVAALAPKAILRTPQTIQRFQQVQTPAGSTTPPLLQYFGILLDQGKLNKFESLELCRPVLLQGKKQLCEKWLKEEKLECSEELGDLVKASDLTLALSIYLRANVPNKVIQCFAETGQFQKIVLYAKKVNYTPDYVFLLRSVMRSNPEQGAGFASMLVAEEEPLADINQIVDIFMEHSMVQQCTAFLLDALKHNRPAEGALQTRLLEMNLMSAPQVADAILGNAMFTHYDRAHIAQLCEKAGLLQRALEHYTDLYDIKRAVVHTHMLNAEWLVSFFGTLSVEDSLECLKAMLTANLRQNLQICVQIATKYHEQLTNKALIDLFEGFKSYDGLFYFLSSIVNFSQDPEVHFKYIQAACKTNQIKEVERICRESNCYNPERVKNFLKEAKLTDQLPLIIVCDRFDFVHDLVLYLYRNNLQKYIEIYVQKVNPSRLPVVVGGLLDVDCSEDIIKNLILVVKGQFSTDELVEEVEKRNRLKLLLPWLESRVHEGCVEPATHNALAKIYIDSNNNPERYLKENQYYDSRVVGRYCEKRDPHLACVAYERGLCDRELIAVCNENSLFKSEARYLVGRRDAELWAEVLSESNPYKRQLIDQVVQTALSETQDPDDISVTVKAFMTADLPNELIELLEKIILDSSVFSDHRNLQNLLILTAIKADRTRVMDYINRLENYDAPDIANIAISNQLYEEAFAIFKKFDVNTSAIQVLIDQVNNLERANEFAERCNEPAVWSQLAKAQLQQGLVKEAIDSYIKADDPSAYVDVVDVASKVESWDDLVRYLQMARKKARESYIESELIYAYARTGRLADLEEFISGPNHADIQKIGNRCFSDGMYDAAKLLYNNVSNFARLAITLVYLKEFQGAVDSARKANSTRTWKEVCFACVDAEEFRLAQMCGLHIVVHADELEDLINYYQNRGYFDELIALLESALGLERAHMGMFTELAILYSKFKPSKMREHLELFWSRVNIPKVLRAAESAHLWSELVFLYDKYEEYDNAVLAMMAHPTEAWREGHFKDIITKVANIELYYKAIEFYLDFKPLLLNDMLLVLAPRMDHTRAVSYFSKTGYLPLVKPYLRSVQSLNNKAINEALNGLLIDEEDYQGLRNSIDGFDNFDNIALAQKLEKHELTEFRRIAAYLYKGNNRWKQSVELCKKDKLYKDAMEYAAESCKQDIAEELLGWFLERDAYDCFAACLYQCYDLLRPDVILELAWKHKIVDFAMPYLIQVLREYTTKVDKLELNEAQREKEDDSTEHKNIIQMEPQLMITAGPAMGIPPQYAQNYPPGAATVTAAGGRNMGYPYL
UniProt Q9VQ93: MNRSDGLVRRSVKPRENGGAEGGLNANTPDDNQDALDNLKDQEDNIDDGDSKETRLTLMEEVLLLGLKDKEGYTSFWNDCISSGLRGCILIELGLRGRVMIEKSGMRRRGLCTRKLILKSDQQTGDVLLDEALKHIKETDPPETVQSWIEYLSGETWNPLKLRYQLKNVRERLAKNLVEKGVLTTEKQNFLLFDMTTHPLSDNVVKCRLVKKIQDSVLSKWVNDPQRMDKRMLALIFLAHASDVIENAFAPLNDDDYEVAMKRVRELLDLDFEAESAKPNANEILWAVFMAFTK
Zipper (Myosin II heavy chain), endogenous in S2 cells (Q99323, form named): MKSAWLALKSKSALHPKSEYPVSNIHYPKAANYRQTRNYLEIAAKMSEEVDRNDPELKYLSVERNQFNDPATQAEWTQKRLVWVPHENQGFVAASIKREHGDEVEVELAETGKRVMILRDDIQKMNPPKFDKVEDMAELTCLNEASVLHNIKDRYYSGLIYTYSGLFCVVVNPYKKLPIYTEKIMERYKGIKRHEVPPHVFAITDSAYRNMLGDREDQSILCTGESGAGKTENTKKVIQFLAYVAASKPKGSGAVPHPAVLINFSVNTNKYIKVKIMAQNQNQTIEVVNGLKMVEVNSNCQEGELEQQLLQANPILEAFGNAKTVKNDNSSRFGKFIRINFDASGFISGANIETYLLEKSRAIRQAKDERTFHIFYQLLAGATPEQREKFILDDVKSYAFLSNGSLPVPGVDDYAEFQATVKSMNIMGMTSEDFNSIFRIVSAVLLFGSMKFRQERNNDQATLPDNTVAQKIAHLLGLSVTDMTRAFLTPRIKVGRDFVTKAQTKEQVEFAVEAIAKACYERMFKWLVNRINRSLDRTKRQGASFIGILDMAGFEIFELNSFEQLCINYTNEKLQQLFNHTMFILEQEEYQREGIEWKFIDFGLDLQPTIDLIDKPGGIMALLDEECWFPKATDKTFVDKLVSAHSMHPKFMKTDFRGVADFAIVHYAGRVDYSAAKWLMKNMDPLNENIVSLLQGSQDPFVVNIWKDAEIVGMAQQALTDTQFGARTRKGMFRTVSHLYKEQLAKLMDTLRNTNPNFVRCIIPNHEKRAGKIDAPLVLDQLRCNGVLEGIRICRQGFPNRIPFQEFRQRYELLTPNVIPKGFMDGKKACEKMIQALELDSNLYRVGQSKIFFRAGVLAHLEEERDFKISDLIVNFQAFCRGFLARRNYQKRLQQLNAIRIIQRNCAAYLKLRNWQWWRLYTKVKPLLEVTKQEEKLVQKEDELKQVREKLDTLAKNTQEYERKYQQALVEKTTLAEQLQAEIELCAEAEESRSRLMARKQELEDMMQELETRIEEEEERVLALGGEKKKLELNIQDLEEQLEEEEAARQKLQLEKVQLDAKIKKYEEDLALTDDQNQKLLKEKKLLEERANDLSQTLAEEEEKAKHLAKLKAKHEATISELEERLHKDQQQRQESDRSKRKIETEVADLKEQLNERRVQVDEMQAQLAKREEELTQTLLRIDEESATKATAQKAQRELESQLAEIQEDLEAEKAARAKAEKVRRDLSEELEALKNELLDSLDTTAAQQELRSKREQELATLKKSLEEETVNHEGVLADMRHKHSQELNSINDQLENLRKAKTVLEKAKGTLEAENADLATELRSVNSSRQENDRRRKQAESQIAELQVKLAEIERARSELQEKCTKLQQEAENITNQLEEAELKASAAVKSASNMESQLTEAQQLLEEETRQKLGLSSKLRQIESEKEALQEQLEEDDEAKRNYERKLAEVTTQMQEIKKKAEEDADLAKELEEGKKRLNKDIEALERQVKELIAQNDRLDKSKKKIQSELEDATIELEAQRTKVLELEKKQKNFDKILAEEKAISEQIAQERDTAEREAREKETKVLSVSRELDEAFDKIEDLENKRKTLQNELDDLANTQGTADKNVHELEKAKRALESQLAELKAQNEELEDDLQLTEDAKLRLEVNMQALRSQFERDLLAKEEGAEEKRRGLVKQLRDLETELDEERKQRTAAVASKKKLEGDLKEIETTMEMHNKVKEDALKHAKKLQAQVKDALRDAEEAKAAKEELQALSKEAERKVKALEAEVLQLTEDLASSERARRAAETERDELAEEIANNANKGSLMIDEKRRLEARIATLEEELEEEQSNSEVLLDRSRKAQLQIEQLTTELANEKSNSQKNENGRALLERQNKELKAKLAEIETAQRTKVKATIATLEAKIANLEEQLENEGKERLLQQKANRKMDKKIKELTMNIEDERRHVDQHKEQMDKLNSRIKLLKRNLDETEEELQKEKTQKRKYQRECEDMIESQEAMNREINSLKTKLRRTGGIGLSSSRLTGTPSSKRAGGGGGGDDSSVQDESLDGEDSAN

Tests used:
[1] = target: Clathrin heavy chain tagged with RFP (Chc-RFP), expressed in testes (UniProt P29742); experiment: co-IP; testis extracts expressing GFP- or RFP-tagged proteins, GFP/RFP trap-A beads (ChromoTek), control binding beads as control; blotted for GOLPH3
[2] = target: T1, GFP-Rab11 expressed in testes (Drosophila) (UniProt O18335); experiment: as above
T1 sequence: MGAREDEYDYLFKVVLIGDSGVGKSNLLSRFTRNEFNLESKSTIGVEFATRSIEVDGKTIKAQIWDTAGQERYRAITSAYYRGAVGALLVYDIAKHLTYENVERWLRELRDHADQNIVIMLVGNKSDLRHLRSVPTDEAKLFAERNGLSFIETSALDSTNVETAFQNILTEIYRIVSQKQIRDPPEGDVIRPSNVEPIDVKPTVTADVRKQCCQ

[3] = target: T2, GFP-Rab5 expressed in testes (UniProt Q9V3I2); experiment: as above
T2 sequence: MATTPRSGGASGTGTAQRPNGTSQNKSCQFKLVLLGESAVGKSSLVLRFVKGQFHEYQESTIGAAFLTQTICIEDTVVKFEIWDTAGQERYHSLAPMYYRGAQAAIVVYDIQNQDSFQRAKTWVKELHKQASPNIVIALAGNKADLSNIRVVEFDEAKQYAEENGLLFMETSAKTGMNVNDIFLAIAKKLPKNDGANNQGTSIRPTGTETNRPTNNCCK

[4] = target: GFP-GOLPH3 expressed in testes (Drosophila melanogaster) (UniProt Q9VQ93); experiment: co-IP; lysate of 400 adult testes expressing GFP-GOLPH3, mouse monoclonal anti-GFP and protein G-sepharose, non-specific mouse IgG as control; blotted for Zipper
[5] = target: GST-GOLPH3 (GST-full-length Drosophila GOLPH3) (Drosophila melanogaster) (UniProt Q9VQ93); experiment: pull-down; GST-GOLPH3 bound to Glutathione-Sepharose 4B beads incubated with testis lysate, 4°C, two hours; lysis buffer 25 mM Tris-HCl pH 7.4, 150 mM NaCl, 0.5% NP-40, 1 mM EDTA; Western blot; only the target purified
[6] = target: GFP-GOLPH3 expressed in S2 cells (Drosophila melanogaster) (UniProt Q9VQ93); experiment: co-IP; extracts of S2 cells transfected with Vps35-Flag and GFP-GOLPH3 (or GFP), GFP-trap; blotted for Zipper and Flag
[7] = target: GST-GOLPH3 (GST-full-length Drosophila GOLPH3) (Drosophila melanogaster) (UniProt Q9VQ93); experiment: pull-down; GST-GOLPH3 bound to Glutathione-Sepharose 4B beads incubated with testis lysate, 4°C, two hours; lysis buffer 25 mM Tris-HCl pH 7.4, 150 mM NaCl, 0.5% NP-40, 1 mM EDTA; Western blot; only the target purified; remark: listed apart in the source

Molecule: Drosophila GOLPH3, endogenous in testes (from UniProt Q9VQ93 1-294)
binding [1]: binds
binding [2]: binds
binding [3]: binds

B1: Drosophila Rab11, GST removed (analyte of the SPR experiment) (natural protein, UniProt O18335 1-214, looked up)
chain: MGAREDEYDYLFKVVLIGDSGVGKSNLLSRFTRNEFNLESKSTIGVEFATRSIEVDGKTIKAQIWDTAGQERYRAITSAYYRGAVGALLVYDIAKHLTYENVERWLRELRDHADQNIVIMLVGNKSDLRHLRSVPTDEAKLFAERNGLSFIETSALDSTNVETAFQNILTEIYRIVSQKQIRDPPEGDVIRPSNVEPIDVKPTVTADVRKQCCQ
notes: Drosophila Rab11, full-length, made as GST fusion; source: E. coli BL21-CodonPlus [DE3], purified as GST fusion, GST cleaved off with PreScission Protease
binding [7]: binds

B2: Clathrin light chain tagged with GFP (Clc-GFP), expressed in testes (protein, UniProt Q9VWA1 1-219)
chain: MDFGDDFAAKEDVDPAAEFLAREQSALGDLEAEITGGSASAPPAASTDEGLGELLGGTASEGDLLSAGGTGGLESSTGSFEVIGGESNEPVGISGPPPSREEPEKIRKWREEQKQRLEEKDIEEERKKEELRQQSKKELDDWLRQIGESISKTKLASRNAEKQAATLENGTIEPGTEWERIAKLCDFNPKVNKAGKDVSRMRSIYLHLKQNPIQVQKST
binding [7]: binds

Now from value to molecule:

binding [4]: binds
binding [5]: binds
Molecule: Zipper (Myosin II heavy chain), endogenous in testes (from UniProt Q99323 1-2056)

binding [6]: binds
Molecule: Zipper (Myosin II heavy chain), endogenous in S2 cells (from UniProt Q99323 1-2056)
